{"sequences": {"note": "Sequences of proteins named here, by UniProt entry; tags and fusion partners are left off. A change or cut given only in a name is not applied to a line headed by its entry.", "UniProt P10275": "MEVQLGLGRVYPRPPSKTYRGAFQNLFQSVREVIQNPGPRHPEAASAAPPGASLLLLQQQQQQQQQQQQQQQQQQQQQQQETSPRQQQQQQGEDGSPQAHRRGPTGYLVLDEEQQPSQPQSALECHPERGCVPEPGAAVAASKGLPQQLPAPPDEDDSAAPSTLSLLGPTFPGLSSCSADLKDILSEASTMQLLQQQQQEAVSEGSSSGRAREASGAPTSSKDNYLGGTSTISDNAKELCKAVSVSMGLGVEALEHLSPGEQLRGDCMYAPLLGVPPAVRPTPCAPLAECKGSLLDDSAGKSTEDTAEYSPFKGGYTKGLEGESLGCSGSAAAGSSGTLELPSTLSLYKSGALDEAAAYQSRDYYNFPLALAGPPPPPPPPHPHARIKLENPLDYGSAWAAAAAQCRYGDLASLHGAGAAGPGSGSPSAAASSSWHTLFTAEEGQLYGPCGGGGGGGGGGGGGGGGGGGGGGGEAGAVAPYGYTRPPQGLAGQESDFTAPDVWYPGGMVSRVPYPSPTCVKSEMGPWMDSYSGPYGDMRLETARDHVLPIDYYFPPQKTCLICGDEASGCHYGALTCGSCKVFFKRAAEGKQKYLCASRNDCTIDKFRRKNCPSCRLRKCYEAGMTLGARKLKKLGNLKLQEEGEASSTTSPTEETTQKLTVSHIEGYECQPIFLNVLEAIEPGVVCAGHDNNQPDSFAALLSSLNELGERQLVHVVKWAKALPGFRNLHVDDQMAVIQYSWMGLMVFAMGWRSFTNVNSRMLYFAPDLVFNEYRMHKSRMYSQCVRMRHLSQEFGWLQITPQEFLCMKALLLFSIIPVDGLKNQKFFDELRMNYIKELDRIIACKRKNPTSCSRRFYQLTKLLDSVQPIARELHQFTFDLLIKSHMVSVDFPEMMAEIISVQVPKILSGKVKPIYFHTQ"}, "source": "PubChem BioAssay (EPA / NIEHS)", "key": {"[1]": {"assay": "ACEA_AR_antagonist_AUC_viability: ACEA Biosciences xCELLigence Real-Time Cell Analysis on Androgen Receptor Antagonism for Viability (AID 2283776);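 also: 22Rv1 human prostate cancer cells growing on impedance electrode plates; hits lower the growth signal relative to DMSO meaning cytotoxicity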", "procedure,_shortened": "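Viability endpoint from label-free cell-index monitoring: 22Rv1 cultures treated with an eight-point 1:4 dilution series starting at 100 uM final, AUC at 80 h fitted against DMSO.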"}, "[2]": {"target": "AR (gene 367) (UniProt P10275)", "assay": "ACEA_AR_agonist_80hr: ACEA Biosciences xCELLigence Real-Time Cell Analysis on Androgen Receptor Agonism for Proliferation (AID 2283783)", "procedure,_shortened": "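Eight concentrations, 1:4 serial dilution from a 100 uM final top, in biological duplicate. Impedance-based real-time growth of 22Rv1 cells after overnight baseline, recorded hourly and read at 80 hours. Controls: testosterone, MG132, assay media.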"}, "[3]": {"test_system": "zebrafish Estrogen Receptor (ESR2A), gene 317734", "assay": "ATG_zfER2a_XSP1: Attagene TRANS-FACTORIAL Multi-Species (XSP1) HepG2 Assay for zebrafish Estrogen Receptor (ESR2A) (AID 2283778)", "procedure,_shortened": "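Reporter transcripts were quantified by RT-PCR, 6-FAM labelling, HpaI digestion and capillary electrophoresis after 24 h dosing. The cells were HepG2 transiently carrying a zebrafish ER2a–Gal4 construct plus multiplexed UAS reporters; medium contained 3 nM 6-alpha-fluorotestosterone.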"}, "[4]": {"assay": "ACEA_ER_AUC_viability: ACEA Biosciences xCELLigence Real-Time Cell Analysis on Estrogen Receptor Agonism for Viability (AID 2283782)", "procedure,_shortened": "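Viability endpoint: reduced impedance area under the curve relative to DMSO, recorded by real-time electrode sensing over ~80 h of continuous exposure. Duplicate plates of T47D in hormone-depleted medium; eight concentrations, 1:4 dilutions, 100 uM maximum.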"}, "[5]": {"test_system": "turtle Estrogen Receptor (ESR1), gene 101933533", "assay": "ATG_trERa_XSP1: Attagene TRANS-FACTORIAL Multi-Species (XSP1) HepG2 Assay for turtle Estrogen Receptor (ESR1) (AID 2283781)", "procedure,_shortened": "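Transactivation measured 24 h post-dose as reporter mRNA (RT-PCR, fluorescent capillary electrophoresis) from an NR-Gal4 turtle ER construct in HepG2. Medium included 3 nM 6-alpha-fluorotestosterone; increase over DMSO fitted.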"}, "[6]": {"test_system": "turtle Androgen Receptor (AR), gene 101947425", "assay": "ATG_trAR_XSP1: Attagene TRANS-FACTORIAL Multi-Species (XSP1) HepG2 Assay for turtle Androgen Receptor (AR) (AID 2283786)", "procedure,_shortened": "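Partial androgen stimulation is provided by 3 nM 6-alpha-fluorotestosterone in a multi-species trans-factorial panel expressing a turtle AR–GAL4 fusion in HepG2. After 24 h, reporter mRNA is measured by RT-PCR and capillary electrophoresis and fitted upward against DMSO.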"}, "[7]": {"assay": "STM_H9_NormalizedViability: Cytotoxicity Assessment at 120 hours in the Stemina devTOX quickPredict H9 human embryonic stem cell (hESC)-based Assay (AID 2283784)", "procedure,_shortened": "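Viability endpoint: background-corrected CellTiter-Fluor RFU expressed relative to the 0.1% DMSO mean on each plate. Undifferentiated H9 cells were treated with daily re-dosing and media change, and loss of signal was fitted.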"}}, "note": "Values joined by “and” are separate entries in the source; they are usually repeats but may differ in a detail not shown here. Equal entries are not always repeated. Inconclusive means that the source gave no clear call. Such entries were picked first, then a sample of the others. For some of these results: Potencies of inconclusive entries are doubtful fits and often do not repeat. The source holds several records for some structures; these can differ, active in one and inactive in another. Active and inactive are the calls of the source. The calls were made as follows: active = hit-call score of the fitted dose curve at least 0.9, where 1 is the maximum; inconclusive = response in the unintended direction; inactive = score below 0.9."}
{"smiles": "O=C1c2ccccc2C(=O)C1C(=O)C(c1ccccc1)c1ccc(Cl)cc1", "note": "(configuration not stated)", "values": [{"measurement": "AC50", "setting": "[1]", "result": "active: 24.6 µM"}, {"measurement": "outcome", "setting": "[2]", "result": "inactive"}]}
{"smiles": "CC(=O)c1cc2c(cc1C)C(C)(C)C(C)CC2(C)C", "note": "(configuration not stated)", "values": [{"measurement": "AC50", "setting": "[3]", "result": "inconclusive: 24.5 µM"}]}
{"smiles": "O=S(=O)(O)C(F)(F)C(F)(F)C(F)(F)C(F)(F)F", "values": [{"measurement": "outcome", "setting": "[1]", "result": "inactive"}, {"measurement": "AC50", "setting": "[4]", "result": "inconclusive: 18.9 µM and inconclusive: 208 nM"}]}
{"smiles": "CCCN(CCC)c1c([N+](=O)[O-])cc(S(N)(=O)=O)cc1[N+](=O)[O-]", "values": [{"measurement": "AC50", "setting": "[3]", "result": "active: 33.4 µM"}, {"measurement": "AC50", "setting": "[4]", "result": "active: 24 µM and active: 82.5 µM and active: 21.4 µM"}]}
{"smiles": "CCC(C)c1cc([N+](=O)[O-])cc([N+](=O)[O-])c1O", "note": "(configuration not stated)", "values": [{"measurement": "AC50", "setting": "[1]", "result": "active: 12 µM"}, {"measurement": "AC50", "setting": "[4]", "result": "inconclusive: 10.3 µM"}]}
{"smiles": "CCCN(CCOc1c(Cl)cc(Cl)cc1Cl)C(=O)n1ccnc1", "values": [{"measurement": "AC50", "setting": "[3]", "result": "inconclusive: 60.3 µM"}, {"measurement": "AC50", "setting": "[5]", "result": "inconclusive: 33.4 µM"}, {"measurement": "AC50", "setting": "[6]", "result": "inconclusive: 33.4 µM"}]}
{"smiles": "CCCCOC(=O)c1ccccc1C(=O)OCCCC", "values": [{"measurement": "AC50", "setting": "[3]", "result": "inconclusive: 100 µM"}, {"measurement": "AC50", "setting": "[4]", "result": "inconclusive: 10 µM"}]}
{"smiles": "CCOCN(C(=O)CCl)c1c(C)cccc1CC", "values": [{"measurement": "AC50", "setting": "[3]", "result": "inconclusive: 100 µM"}, {"measurement": "AC50", "setting": "[5]", "result": "inconclusive: 184 µM"}]}
{"smiles": "CCCN(CCC)c1c([N+](=O)[O-])cc(C(F)(F)F)cc1[N+](=O)[O-]", "values": [{"measurement": "AC50", "setting": "[3]", "result": "inconclusive: 100 µM"}, {"measurement": "AC50", "setting": "[4]", "result": "inconclusive: 0.0707 µM"}, {"measurement": "outcome", "setting": "[2]", "result": "inactive"}, {"measurement": "AC50", "setting": "[6]", "result": "inconclusive: 100 µM"}]}
{"smiles": "CC(C)(C)c1cc(O)ccc1O", "values": [{"measurement": "outcome", "setting": "[3]", "result": "inactive"}, {"measurement": "AC50", "setting": "[7]", "result": "inconclusive: 0.00386 µM"}]}
